These are yes or no findings as the source states them, for the method shown. Binding seen in cells or lysates may run through a third protein. Some results given as binding are weak or reduced against the parent protein; the word gives no strength.
T1: Nogo-A/RTN4-A (endogenous, mouse) (mouse (endogenous in brain and hippocampal neurons)) (UniProt Q99P72)
T1 sequence: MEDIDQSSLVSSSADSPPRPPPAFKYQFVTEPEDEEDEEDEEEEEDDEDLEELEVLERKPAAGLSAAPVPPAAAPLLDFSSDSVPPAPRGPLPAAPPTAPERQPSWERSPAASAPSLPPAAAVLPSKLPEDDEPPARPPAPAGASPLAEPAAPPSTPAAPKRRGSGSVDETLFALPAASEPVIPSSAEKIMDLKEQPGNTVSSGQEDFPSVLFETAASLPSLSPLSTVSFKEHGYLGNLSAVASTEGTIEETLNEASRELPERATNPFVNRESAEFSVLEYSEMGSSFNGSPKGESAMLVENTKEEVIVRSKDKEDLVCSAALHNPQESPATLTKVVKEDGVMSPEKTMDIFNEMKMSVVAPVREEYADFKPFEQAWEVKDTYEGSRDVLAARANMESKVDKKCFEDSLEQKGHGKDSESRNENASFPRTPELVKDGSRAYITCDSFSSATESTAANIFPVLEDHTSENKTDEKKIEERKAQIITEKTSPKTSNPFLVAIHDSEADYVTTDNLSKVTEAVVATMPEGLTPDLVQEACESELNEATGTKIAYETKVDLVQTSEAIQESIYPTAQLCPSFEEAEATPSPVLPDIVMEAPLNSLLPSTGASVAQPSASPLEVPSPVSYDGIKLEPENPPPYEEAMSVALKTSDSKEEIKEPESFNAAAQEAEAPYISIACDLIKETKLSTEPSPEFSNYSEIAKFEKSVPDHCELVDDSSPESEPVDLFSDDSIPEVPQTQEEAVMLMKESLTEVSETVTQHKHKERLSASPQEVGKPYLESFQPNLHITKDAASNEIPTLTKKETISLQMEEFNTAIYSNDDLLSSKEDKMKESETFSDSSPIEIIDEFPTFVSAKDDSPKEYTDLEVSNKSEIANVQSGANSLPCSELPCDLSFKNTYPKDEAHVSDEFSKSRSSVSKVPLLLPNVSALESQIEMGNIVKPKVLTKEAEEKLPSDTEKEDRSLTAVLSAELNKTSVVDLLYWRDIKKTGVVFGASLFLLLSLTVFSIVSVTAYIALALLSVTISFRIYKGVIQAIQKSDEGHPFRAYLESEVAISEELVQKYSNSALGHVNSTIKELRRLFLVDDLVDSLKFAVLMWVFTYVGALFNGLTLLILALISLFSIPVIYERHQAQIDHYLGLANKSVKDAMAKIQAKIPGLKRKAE

Protein sequences, listed by entry. Tags and fused reporters are not part of them.
UniProt P48722: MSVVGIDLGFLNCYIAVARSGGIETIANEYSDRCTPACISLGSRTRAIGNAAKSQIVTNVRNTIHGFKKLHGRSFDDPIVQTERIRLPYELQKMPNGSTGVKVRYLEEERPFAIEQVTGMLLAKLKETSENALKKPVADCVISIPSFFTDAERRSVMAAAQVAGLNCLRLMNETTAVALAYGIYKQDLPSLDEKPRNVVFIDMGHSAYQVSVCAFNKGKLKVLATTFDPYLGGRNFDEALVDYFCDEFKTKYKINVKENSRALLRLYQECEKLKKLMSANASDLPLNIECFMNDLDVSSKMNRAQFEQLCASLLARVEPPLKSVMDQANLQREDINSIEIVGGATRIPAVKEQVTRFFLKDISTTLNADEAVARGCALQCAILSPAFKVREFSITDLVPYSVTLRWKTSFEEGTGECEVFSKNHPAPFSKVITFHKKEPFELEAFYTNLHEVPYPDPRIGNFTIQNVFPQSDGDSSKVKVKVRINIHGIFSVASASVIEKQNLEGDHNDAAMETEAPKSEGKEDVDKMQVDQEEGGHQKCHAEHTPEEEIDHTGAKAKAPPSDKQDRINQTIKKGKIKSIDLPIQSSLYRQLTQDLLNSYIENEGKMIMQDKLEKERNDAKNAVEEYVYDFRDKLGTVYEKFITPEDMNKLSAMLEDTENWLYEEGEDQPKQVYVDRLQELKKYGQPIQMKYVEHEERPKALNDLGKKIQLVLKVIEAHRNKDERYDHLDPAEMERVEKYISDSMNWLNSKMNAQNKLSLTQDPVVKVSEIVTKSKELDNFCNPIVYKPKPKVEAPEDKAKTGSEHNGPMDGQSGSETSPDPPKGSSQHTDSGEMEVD
UniProt Q61699: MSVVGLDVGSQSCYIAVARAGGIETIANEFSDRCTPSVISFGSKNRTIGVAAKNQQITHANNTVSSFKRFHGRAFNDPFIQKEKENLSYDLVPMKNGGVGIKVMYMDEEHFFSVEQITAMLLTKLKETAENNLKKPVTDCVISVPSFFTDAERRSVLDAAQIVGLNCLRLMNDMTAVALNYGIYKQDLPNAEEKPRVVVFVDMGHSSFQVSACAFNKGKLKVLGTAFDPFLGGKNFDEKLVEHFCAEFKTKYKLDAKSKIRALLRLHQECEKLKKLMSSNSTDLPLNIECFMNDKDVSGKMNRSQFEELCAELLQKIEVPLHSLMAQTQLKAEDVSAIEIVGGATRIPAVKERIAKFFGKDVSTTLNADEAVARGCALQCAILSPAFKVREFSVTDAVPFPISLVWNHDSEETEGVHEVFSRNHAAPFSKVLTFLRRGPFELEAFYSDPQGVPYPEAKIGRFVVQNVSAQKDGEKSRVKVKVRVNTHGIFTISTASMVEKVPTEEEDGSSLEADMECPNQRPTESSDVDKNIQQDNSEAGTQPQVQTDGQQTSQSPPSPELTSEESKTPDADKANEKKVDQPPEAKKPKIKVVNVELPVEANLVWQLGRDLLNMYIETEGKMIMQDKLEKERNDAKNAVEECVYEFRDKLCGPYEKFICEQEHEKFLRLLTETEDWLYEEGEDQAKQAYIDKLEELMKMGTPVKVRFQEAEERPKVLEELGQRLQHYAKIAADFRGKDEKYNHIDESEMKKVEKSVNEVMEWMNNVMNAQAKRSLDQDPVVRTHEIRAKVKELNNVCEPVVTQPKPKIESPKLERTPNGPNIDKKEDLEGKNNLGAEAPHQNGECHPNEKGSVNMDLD


Legend:
[1] = biological target: T1, Nogo-A/RTN4-A (endogenous, mouse) (mouse (endogenous in brain and hippocampal neurons)); experiment: co-IP; endogenous proteins, brain lysate from a 4-week-old mouse, 1 mg of total protein; 6 μg of rabbit anti-Nogo-A/B (Bianca), rabbit anti-Apg-1 or rabbit IgG; Western blot
[2] = biological target: Apg-1 (mouse), overexpressed in CHO-K1 cells (mouse) (UniProt P48722); experiment: co-IP; Apg-1 co-transfected with Nogo-A or Nogo-B in adherent CHO-K1 cells, lysed in buffer A (50 mM Hepes pH 7.6, 150 mM NaCl, 10% glycerol, 1% Triton X-100); 200 μg of lysate with 6 μg of rabbit anti-Nogo-A/B (Bianca), rabbit anti-Apg-1 or rabbit IgG; Western blot
[3] = biological target: Apg-1 (endogenous, mouse) (mouse (endogenous in brain and hippocampal neurons)) (UniProt P48722); experiment: co-IP; endogenous proteins, brain lysate from a 4-week-old mouse, 1 mg of total protein; 6 μg of rabbit anti-Nogo-A/B (Bianca), rabbit anti-Apg-1 or rabbit IgG; Western blot

Molecule | binding [3] | other results
Hsp105 (endogenous, mouse brain) (from UniProt Q61699 1-858) |  | binding [1]: no binding
Nogo-A, full length, overexpressed in CHO-K1 cells (Nogo-A_pcDNA3) (protein, UniProt Q9JK11-1 1-1163) MEDIDQSSLVSSSTDSPPRPPPAFKYQFVTEPEDEEDEEEEEDEEEDDEDLEELEVLERKPAAGLSAAAVPPAAAAPLLDFSSDSVPPAPRGPLPAAPPAAPERQPSWERSPAAPAPSLPPAAAVLPSKLPEDDEPPARPPPPPPAGASPLAEPAAPPSTPAAPKRRGSGSVDETLFALPAASEPVIPSSAEKIMDLMEQPGNTVSSGQEDFPSVLLETAASLPSLSPLSTVSFKEHGYLGNLSAVSSSEGTIEETLNEASKELPERATNPFVNRDLAEFSELEYSEMGSSFKGSPKGESAILVENTKEEVIVRSKDKEDLVCSAALHSPQESPVGKEDRVVSPEKTMDIFNEMQMSVVAPVREEYADFKPFEQAWEVKDTYEGSRDVLAARANVESKVDRKCLEDSLEQKSLGKDSEGRNEDASFPSTPEPVKDSSRAYITCASFTSATESTTANTFPLLEDHTSENKTDEKKIEERKAQIITEKTSPKTSNPFLVAVQDSEADYVTTDTLSKVTEAAVSNMPEGLTPDLVQEACESELNEATGTKIAYETKVDLVQTSEAIQESLYPTAQLCPSFEEAEATPSPVLPDIVMEAPLNSLLPSAGASVVQPSVSPLEAPPPVSYDSIKLEPENPPPYEEAMNVALKALGTKEGIKEPESFNAAVQETEAPYISIACDLIKETKLSTEPSPDFSNYSEIAKFEKSVPEHAELVEDSSPESEPVDLFSDDSIPEVPQTQEEAVMLMKESLTEVSETVAQHKEERLSASPQELGKPYLESFQPNLHSTKDAASNDIPTLTKKEKISLQMEEFNTAIYSNDDLLSSKEDKIKESETFSDSSPIEIIDEFPTFVSAKDDSPKLAKEYTDLEVSDKSEIANIQSGADSLPCLELPCDLSFKNIYPKDEVHVSDEFSENRSSVSKASISPSNVSALEPQTEMGSIVKSKSLTKEAEKKLPSDTEKEDRSLSAVLSAELSKTSVVDLLYWRDIKKTGVVFGASLFLLLSLTVFSIVSVTAYIALALLSVTISFRIYKGVIQAIQKSDEGHPFRAYLESEVAISEELVQKYSNSALGHVNSTIKELRRLFLVDDLVDSLKFAVLMWVFTYVGALFNGLTLLILALISLFSIPVIYERHQVQIDHYLGLANKSVKDAMAKIQAKIPGLKRKAD |  | binding [2]: binds
Nogo-A/RTN4-A (endogenous, mouse) (protein, UniProt Q99P72-2 1-1162) MEDIDQSSLVSSSADSPPRPPPAFKYQFVTEPEDEEDEEDEEEEEDDEDLEELEVLERKPAAGLSAAPVPPAAAPLLDFSSDSVPPAPRGPLPAAPPTAPERQPSWERSPAASAPSLPPAAAVLPSKLPEDDEPPARPPAPAGASPLAEPAAPPSTPAAPKRRGSGSVDETLFALPAASEPVIPSSAEKIMDLKEQPGNTVSSGQEDFPSVLFETAASLPSLSPLSTVSFKEHGYLGNLSAVASTEGTIEETLNEASRELPERATNPFVNRESAEFSVLEYSEMGSSFNGSPKGESAMLVENTKEEVIVRSKDKEDLVCSAALHNPQESPATLTKVVKEDGVMSPEKTMDIFNEMKMSVVAPVREEYADFKPFEQAWEVKDTYEGSRDVLAARANMESKVDKKCFEDSLEQKGHGKDSESRNENASFPRTPELVKDGSRAYITCDSFSSATESTAANIFPVLEDHTSENKTDEKKIEERKAQIITEKTSPKTSNPFLVAIHDSEADYVTTDNLSKVTEAVVATMPEGLTPDLVQEACESELNEATGTKIAYETKVDLVQTSEAIQESIYPTAQLCPSFEEAEATPSPVLPDIVMEAPLNSLLPSTGASVAQPSASPLEVPSPVSYDGIKLEPENPPPYEEAMSVALKTSDSKEEIKEPESFNAAAQEAEAPYISIACDLIKETKLSTEPSPEFSNYSEIAKFEKSVPDHCELVDDSSPESEPVDLFSDDSIPEVPQTQEEAVMLMKESLTEVSETVTQHKHKERLSASPQEVGKPYLESFQPNLHITKDAASNEIPTLTKKETISLQMEEFNTAIYSNDDLLSSKEDKMKESETFSDSSPIEIIDEFPTFVSAKDDSPKEYTDLEVSNKSEIANVQSGANSLPCSELPCDLSFKNTYPKDEAHVSDEFSKSRSSVSKVPLLLPNVSALESQIEMGNIVKPKVLTKEAEEKLPSDTEKEDRSLTAVLSAELNKTSVVDLLYWRDIKKTGVVFGASLFLLLSLTVFSIVSVTAYIALALLSVTISFRIYKGVIQAIQKSDEGHPFRAYLESEVAISEELVQKYSNSALGHVNSTIKELRRLFLVDDLVDSLKFAVLMWVFTYVGALFNGLTLLILALISLFSIPVIYERHQAQIDHYLGLANKSVKDAMAKIQAKIPGLKRKAE | binds | 
RTN1-A (endogenous, mouse brain) (protein, UniProt Q8K0T0 1-780) MAAPPDLQDEPLSLGSPGSQWFGGRGDGEDEATAVMGARPAQQDGEPAWGSGAGAGVTSSRELCSGPARSPPVAMETASTGMAAVPDALDHSPSSTLKDGEGACYTSLISDVCYPPREDSAYFTGILQKENGHITTSESPEEPETPGPSLPEVPGMEPQGLLSSDSGIEMTPAESTEVNKILADPLDQMKAEAYKYIDITRPQEAKGQEEQHPGLEDKDLDFKDKDTEVSTKAEGVRAPNQPAPVEGKLIKDHLFEESTFAPYIDELSDEQHRVSLVTAPVKITLTEIEPPLMTATQETIPEKQDLCLKPSPDTVPTVTVSEPEDDSPGSVTPPSSGTEPSAAESQGKGSVSEDELIAAIKEAKGLSYETTESPRPVGQVADKPKTKTRSGLPTIPSPLDQEASSAESGDSEIELVSEDPMASEDALPSGYVSFGHVSGPPPSPASPSIQYSILREEREAELDSELIIESCDASSASEESPKREQDSPPMKPGALDAIREETGSRATEERAPSHQGPVEPDPMLSFAPAAALQSRPEPSSGDGASVPEPPRSQQQKPEEEAVSSSQSPTATEIPGPLGSGLMPPLPFFNKQKAIDLLYWRDIKQTGIVFGSFLLLLFSLTQFSVVSVVAYLALAALSATISFRIYKSVLQAVQKTDEGHPFKAYLELEITLSQEQIQKYTDCLQLYVNSTLKELRRLFLVQDLVDSLKFAVLMWLLTYVGALFNGLTLLLMAVVSMFTLPVVYVKHQAQVDQYLGLVRTHINTVVAKIQAKIPGAKRHAE | no binding | 
